Values from PubChem BioAssay AID1259424 (University of Nebraska Medical Center, 2018).
The deposit covers about 14,000 reagents; below is a part drawn at random. 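Higher correlation or smaller distance means closer resemblance to KSR1 loss; control wells, including KSR1 knockdowns, recur on many plates.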 Not given: the time to read-out.

Aim: 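Rank knockdowns across the genome by resemblance to the KSR1 depletion profile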 (primary screen)
System: human HCT116 colon cancer cells
Reagents: siRNA pool against human genes, 50 nM
Measured: 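Six signature mRNAs by branched-DNA multiplex assay, scaled to two housekeeping genes and non-targeting median, log2; matched to mean KSR1 knockdown profile by Pearson correlation and euclidean distance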
Scale: mean correlation with KSR1 profile and KSR1 correlation: higher = expression change more like KSR1 knockdown; mean distance from KSR1 profile: higher = expression change less like KSR1 knockdown

Target gene,mean correlation with KSR1 profile,mean distance from KSR1 profile,"KSR1 correlation, replicate 1","KSR1 correlation, replicate 2","KSR1 correlation, replicate 3"
HOXB3,0.653,5.56,0.487,0.548,0.44
TOP2B,0.145,1.64,0.0035,0.0474,0.262
GNG11,0.829,2.01,0.477,0.773,0.784
COLEC12,0.598,1.39,0.263,0.685,0.695
ZGPAT,0.957,2.16,0.887,0.947,0.805
CDC42EP4,-0.694,2.42,-0.374,-0.787,-0.705
USP32,0.374,2.44,-0.0108,0.137,0.634
URGCP,-0.261,1.62,-0.389,-0.0918,-0.579
PTOV1,-0.316,3.27,-0.574,-0.383,-0.0686
CASD1,0.527,2,0.219,0.213,0.553
DHFR,0.346,4.23,-0.105,0.348,0.712
GNPTG,-0.0519,2.43,0.0779,-0.174,-0.436
CFL2,-0.442,2.75,-0.621,-0.343,-0.387
DNMT3A,-0.489,5.06,-0.518,-0.475,-0.574
TXNDC2,0.987,1.29,0.919,0.943,0.882
METTL17,-0.472,1.51,-0.638,-0.529,-0.432

Not a retest: entries from further up.
Target gene,mean correlation with KSR1 profile,mean distance from KSR1 profile,"KSR1 correlation, replicate 1","KSR1 correlation, replicate 2","KSR1 correlation, replicate 3"
GNG11,0.829,2.01,0.477,0.773,0.784
COLEC12,0.598,1.39,0.263,0.685,0.695
ZGPAT,0.957,2.16,0.887,0.947,0.805

The list goes on:
Target gene,mean correlation with KSR1 profile,mean distance from KSR1 profile,"KSR1 correlation, replicate 1","KSR1 correlation, replicate 2","KSR1 correlation, replicate 3"
LZTS1,0.297,1.92,0.7,0.44,-0.0313
TBX18,-0.938,1.98,-0.915,-0.837,-0.938
UGT2B7,-0.296,4.23,-0.246,-0.312,-0.334
TBC1D19,-0.804,1.55,-0.727,-0.834,-0.769
TMEM132A,-0.449,3.48,-0.301,-0.516,-0.602
ELOB,-0.898,7.08,-0.904,-0.798,-0.901
WT1,-0.167,2.72,-0.092,-0.298,0.259
ERCC6L,-0.519,3.21,-0.493,-0.479,-0.563
RAB9B,0.366,1.9,0.299,0.387,0.379
HDDC2,-0.189,1.09,-0.0766,-0.0658,-0.363
MIGA2,-0.346,3.06,-0.4,-0.261,-0.437
VEZT,-0.504,2.39,-0.453,-0.428,-0.342
BLMH,-0.221,1.47,-0.348,-0.415,0.0388
NRG2,-0.441,1.81,-0.389,-0.351,-0.384
KIF17,-0.323,2.14,-0.335,-0.386,-0.305
NELFE,-0.0608,4.35,0.193,-0.08,-0.33
DMWD,0.841,1.35,0.805,0.811,0.839
PRSS23,-0.383,1.45,-0.298,-0.338,-0.423
